The text below walks through data of patent publication US20090291942A1, “IMIDAZO PYRIDINE DERIVATIVES” (priority 2008, published 2009).

Sequences of proteins named here, by UniProt entry; tags and fusion partners are left off. A change or cut given only in a name is not applied to a line headed by its entry.
UniProt P46093: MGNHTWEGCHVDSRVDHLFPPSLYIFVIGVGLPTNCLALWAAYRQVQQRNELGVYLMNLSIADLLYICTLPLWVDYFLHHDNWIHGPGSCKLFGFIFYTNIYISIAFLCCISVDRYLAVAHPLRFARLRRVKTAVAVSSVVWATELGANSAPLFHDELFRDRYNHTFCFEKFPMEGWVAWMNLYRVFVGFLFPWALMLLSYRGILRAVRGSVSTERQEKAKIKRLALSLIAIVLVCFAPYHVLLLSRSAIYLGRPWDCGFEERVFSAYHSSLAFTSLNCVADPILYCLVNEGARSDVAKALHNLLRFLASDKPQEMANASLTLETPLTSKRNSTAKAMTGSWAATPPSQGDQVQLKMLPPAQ

One may read the IC50 as the midpoint of a concentration-inhibition curve.

For this assay, the target named is T1, human GPR4 (Homo sapiens, UniProt P46093).
T1 construct: expressed in transfected cells
Kind of assay: Cell-based assay for human GPR4 activity (pH-induced cAMP formation, HTRF). Particulars: HeLa cells stably expressing human GPR4, pH-induced cAMP formation. The protocol: a) Cell-Based Assay for Human GPR4 Activity
HeLa cells stably expressing human GPR4 were established by transfecting the cells with a construct containing the human GPR4 coding sequence. The cells were grown in DMEM/HAM's F12 medium supplemented with 10% fetal calf serum (FCS), 100 u/ml penicillin, 100 μg/ml streptomycin and 400 μg/ml G418 and 10 mM Hepes pH 8.0. pH-induced formation of cAMP was determined using the HTRF technology as provided by CisBio Inc. The cells were seeded in 384-well plates and cultured for 24 hours at 37° C., 5% CO2 before performing the assay. Medium was removed and 10 μl buffer A (HBS, 10 mM Hepes, pH 8, 2 mM IBMX) was added. For compound testing, buffer A with 2× concentrated compounds was used. Cells were incubated for 15 min at room temperature. 10 μl buffer B (HBS, 30 mM Hepes, specific pH) was added to reach the appropriate final pH for stimulation (see below) and incubation was continued for 15 min at room temperature. […] HBS: 130 mM NaCl, 0.9 mM NaH2PO4, 5.4 mM KCl, 0.8 mM MgSO4, CaCl2 1.8 mM, 25 mM glucose, 10-30 mM Hepes. Adjustment of HBS buffers: Bf A Bf B Final stimulation pH (1 volume buffer A+1 volume buffer B)
Compounds were diluted from fresh stock solutions at 10 mM in DMSO to 2 mM and then used for serial dilutions in DMSO.

Take `CCc1nc2c(C)cc(C)nc2n1Cc1ccc(NC(=O)CCCCN2CCC(N(C)C)C2)cc1` (stereo not shown) [Example 103, 5-(3-Dimethylamino-pyrrolidin-1-yl)-pentanoic acid [4-(2-ethyl-5,7-dimethyl-imidazo[4,5-b]pyridin-3-ylmethyl)-phenyl]-amide]: the IC50 was 376 nM.
